Consider 2 sequences from article PMC10722557.

By UniProt entry, the sequences of proteins in these tests, tags left out. Residues count along the entry.
UniProt Q9H165, 742-823: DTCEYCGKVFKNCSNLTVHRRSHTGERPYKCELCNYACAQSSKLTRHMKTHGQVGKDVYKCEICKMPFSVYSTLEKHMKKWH

For at least one entry, the source does not settle the construct or the ends of the probe. Results from cells or extracts need not show a direct contact. Weaker means in comparison with the reference protein, sequence or condition of that experiment. At least one verdict was read from the data and is not stated in words by the source.

The series has as its target FLAG-BCL11A zinc fingers 4-6 (UniProt Q9H165). In words: EMSA. The settings on record: 10 mM HEPES pH 7.8, 50 mM KCl, 5 mM MgCl2, 1 mM EDTA, 50 ug/mL poly(dI-dC), 1 mM DTT, 100 ug/mL BSA, 5% glycerol, 6% native PAGE in TBE at 4 C, protein in a lysate after overexpression, protein details: FLAG, label: 32P (5' end, sense strand). (In EMSA bound probe runs differently from free probe, usually more slowly.)

Take “AGCCTTGCCTTGAACCAATAGCCTTGACAA (double strand) [HBG1/2 promoter +1 probe]”: the binding result is on record as “binds more weakly”.
As to “AGCCTTGCCTTGACCAATAGCCTTGACAA (double strand) [HBG1/2 promoter WT probe]”, the binding result (anti-FLAG supershift) was “binds”.
